{"source": "PubChem BioAssay AID1508597 – Cure First, 2020", "assay": "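Genes whose silencing sensitises or protects ovarian cancer cells against rucaparib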 (primary screen)", "system": "human ovarian carcinoma lines grown from tumours: OCI-P5x (papillary serous) and OCI-C5x (clear cell)", "reagents": "siRNA pool against human genes, 1.25 pmol siRNA per well", "time to read-out": "72 h or 96 h, depending on the cell culture", "conditions": "rucaparib 20 µM (about IC30) or vehicle, present until read-out", "rucaparib or vehicle": "Rucaparib", "cell line": "OCI-C5x (clear cell)", "read-out": "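Luminescent ATP-based viability assay read 72 or 96 h after transfection, depending on culture, given as normalised percent viability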", "direction": "viability, normalised: higher = more viable cells remaining", "rule for the call": "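a well counts as a hit if its normalised viability is under 80 percent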", "calls": "active = viability under 80%; inactive = viability 80% or more", "note": "Shown is an unselected part of the about 2,100 reagents, in one setting of the screen. 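Calls flag viability under 80% in either arm, not effects specific to rucaparib; the reference for percent is not stated.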 A reagent listed more than once was tested more than once; the source does not tell the runs apart. Not given: the 100% reference."}
{"Target gene": "DDX23", "PubChem SID": "SID405528178", "technical replicate": "1", "viability, normalised (%)": 61.7, "outcome": "active"}
{"Target gene": "DDX23", "PubChem SID": "SID405528178", "technical replicate": "2", "viability, normalised (%)": 45.7, "outcome": "active"}
{"Target gene": "DDX23", "PubChem SID": "SID405528178", "technical replicate": "3", "viability, normalised (%)": 40.4, "outcome": "active"}
{"Target gene": "H4C2", "PubChem SID": "SID405526863", "technical replicate": "1", "viability, normalised (%)": 61, "outcome": "active"}
{"Target gene": "H4C2", "PubChem SID": "SID405526863", "technical replicate": "2", "viability, normalised (%)": 31, "outcome": "active"}
{"Target gene": "H4C2", "PubChem SID": "SID405526863", "technical replicate": "3", "viability, normalised (%)": 48.9, "outcome": "active"}
{"Target gene": "MYSM1", "PubChem SID": "SID405527050", "technical replicate": "1", "viability, normalised (%)": 44.5, "outcome": "active"}
{"Target gene": "MYSM1", "PubChem SID": "SID405527050", "technical replicate": "2", "viability, normalised (%)": 50.5, "outcome": "active"}
{"Target gene": "MYSM1", "PubChem SID": "SID405527050", "technical replicate": "3", "viability, normalised (%)": 45.9, "outcome": "active"}
{"Target gene": "MBD4", "PubChem SID": "SID405526972", "technical replicate": "1", "viability, normalised (%)": 38.1, "outcome": "active"}
{"Target gene": "MBD4", "PubChem SID": "SID405526972", "technical replicate": "1", "viability, normalised (%)": 45.3, "outcome": "active"}
{"Target gene": "MBD4", "PubChem SID": "SID405526972", "technical replicate": "2", "viability, normalised (%)": 31.8, "outcome": "active"}
{"Target gene": "MBD4", "PubChem SID": "SID405526972", "technical replicate": "2", "viability, normalised (%)": 35.4, "outcome": "active"}
{"Target gene": "MBD4", "PubChem SID": "SID405526972", "technical replicate": "3", "viability, normalised (%)": 41.3, "outcome": "active"}
{"Target gene": "MBD4", "PubChem SID": "SID405526972", "technical replicate": "3", "viability, normalised (%)": 38, "outcome": "active"}
{"Target gene": "SLC25A26", "PubChem SID": "SID405526484", "technical replicate": "1", "viability, normalised (%)": 53.8, "outcome": "active"}
{"Target gene": "SLC25A26", "PubChem SID": "SID405526484", "technical replicate": "2", "viability, normalised (%)": 55, "outcome": "active"}
{"Target gene": "SLC25A26", "PubChem SID": "SID405526484", "technical replicate": "3", "viability, normalised (%)": 68.6, "outcome": "active"}

Continued, starting with the last 3 of the part before.
{"Target gene": "SLC25A26", "PubChem SID": "SID405526484", "technical replicate": "1", "viability, normalised (%)": 53.8, "outcome": "active"}
{"Target gene": "SLC25A26", "PubChem SID": "SID405526484", "technical replicate": "2", "viability, normalised (%)": 55, "outcome": "active"}
{"Target gene": "SLC25A26", "PubChem SID": "SID405526484", "technical replicate": "3", "viability, normalised (%)": 68.6, "outcome": "active"}
{"Target gene": "SFMBT1", "PubChem SID": "SID405527291", "technical replicate": "1", "viability, normalised (%)": 37.3, "outcome": "active"}
{"Target gene": "SFMBT1", "PubChem SID": "SID405527291", "technical replicate": "2", "viability, normalised (%)": 46, "outcome": "active"}
{"Target gene": "SFMBT1", "PubChem SID": "SID405527291", "technical replicate": "3", "viability, normalised (%)": 46.4, "outcome": "active"}
{"Target gene": "GNAT1", "PubChem SID": "SID405526822", "technical replicate": "1", "viability, normalised (%)": 43.9, "outcome": "active"}
{"Target gene": "GNAT1", "PubChem SID": "SID405526822", "technical replicate": "2", "viability, normalised (%)": 31.3, "outcome": "active"}
{"Target gene": "GNAT1", "PubChem SID": "SID405526822", "technical replicate": "3", "viability, normalised (%)": 49.8, "outcome": "active"}
{"Target gene": "BUB3", "PubChem SID": "SID405528365", "technical replicate": "1", "viability, normalised (%)": 43.8, "outcome": "active"}
{"Target gene": "BUB3", "PubChem SID": "SID405528365", "technical replicate": "2", "viability, normalised (%)": 38.9, "outcome": "active"}
{"Target gene": "BUB3", "PubChem SID": "SID405528365", "technical replicate": "3", "viability, normalised (%)": 49.3, "outcome": "active"}
{"Target gene": "SMYD3", "PubChem SID": "SID405527348", "technical replicate": "1", "viability, normalised (%)": 80.4, "outcome": "inactive"}
{"Target gene": "SMYD3", "PubChem SID": "SID405527348", "technical replicate": "2", "viability, normalised (%)": 44.5, "outcome": "active"}
{"Target gene": "SMYD3", "PubChem SID": "SID405527348", "technical replicate": "3", "viability, normalised (%)": 42.8, "outcome": "active"}
{"Target gene": "TK2", "PubChem SID": "SID405528593", "technical replicate": "1", "viability, normalised (%)": 48.5, "outcome": "active"}
{"Target gene": "TK2", "PubChem SID": "SID405528593", "technical replicate": "2", "viability, normalised (%)": 42.8, "outcome": "active"}
{"Target gene": "TK2", "PubChem SID": "SID405528593", "technical replicate": "3", "viability, normalised (%)": 41.2, "outcome": "active"}
